Consider 11 substances from publication PMC8384158.

Sequences of proteins named here, by UniProt entry; tags and fusion partners are left off. Residues count along the entry.
UniProt P10415: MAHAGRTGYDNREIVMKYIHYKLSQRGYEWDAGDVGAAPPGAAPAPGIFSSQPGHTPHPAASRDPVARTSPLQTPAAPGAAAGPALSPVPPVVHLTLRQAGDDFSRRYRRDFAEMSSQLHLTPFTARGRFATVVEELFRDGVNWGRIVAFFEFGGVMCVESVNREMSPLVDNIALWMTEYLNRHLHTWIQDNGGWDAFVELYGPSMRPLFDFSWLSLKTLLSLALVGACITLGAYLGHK
UniProt Q9UNE7: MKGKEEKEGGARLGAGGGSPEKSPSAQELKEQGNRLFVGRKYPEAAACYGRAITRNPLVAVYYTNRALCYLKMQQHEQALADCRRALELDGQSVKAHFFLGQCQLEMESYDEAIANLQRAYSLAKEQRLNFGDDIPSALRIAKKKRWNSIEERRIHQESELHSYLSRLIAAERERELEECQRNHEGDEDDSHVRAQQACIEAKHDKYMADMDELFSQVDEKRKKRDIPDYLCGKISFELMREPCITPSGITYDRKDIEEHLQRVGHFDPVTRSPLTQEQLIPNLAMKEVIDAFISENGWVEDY
UniProt P27824, residues 21-592: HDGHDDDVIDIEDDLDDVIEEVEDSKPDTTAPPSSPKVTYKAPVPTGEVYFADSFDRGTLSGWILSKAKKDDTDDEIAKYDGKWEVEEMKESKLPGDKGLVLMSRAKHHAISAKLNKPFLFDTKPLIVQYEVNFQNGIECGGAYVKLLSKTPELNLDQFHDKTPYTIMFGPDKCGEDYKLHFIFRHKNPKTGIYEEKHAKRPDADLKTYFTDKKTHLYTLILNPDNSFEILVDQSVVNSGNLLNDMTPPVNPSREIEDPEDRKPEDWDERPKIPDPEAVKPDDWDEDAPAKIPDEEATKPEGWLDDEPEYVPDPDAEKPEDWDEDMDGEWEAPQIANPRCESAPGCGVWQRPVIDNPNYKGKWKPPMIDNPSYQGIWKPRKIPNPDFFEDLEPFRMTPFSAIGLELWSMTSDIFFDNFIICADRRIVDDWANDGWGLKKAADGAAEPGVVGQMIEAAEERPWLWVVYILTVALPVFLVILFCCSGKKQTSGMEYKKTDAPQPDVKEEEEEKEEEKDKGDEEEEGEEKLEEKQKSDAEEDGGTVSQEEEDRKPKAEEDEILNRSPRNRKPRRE
UniProt P11142: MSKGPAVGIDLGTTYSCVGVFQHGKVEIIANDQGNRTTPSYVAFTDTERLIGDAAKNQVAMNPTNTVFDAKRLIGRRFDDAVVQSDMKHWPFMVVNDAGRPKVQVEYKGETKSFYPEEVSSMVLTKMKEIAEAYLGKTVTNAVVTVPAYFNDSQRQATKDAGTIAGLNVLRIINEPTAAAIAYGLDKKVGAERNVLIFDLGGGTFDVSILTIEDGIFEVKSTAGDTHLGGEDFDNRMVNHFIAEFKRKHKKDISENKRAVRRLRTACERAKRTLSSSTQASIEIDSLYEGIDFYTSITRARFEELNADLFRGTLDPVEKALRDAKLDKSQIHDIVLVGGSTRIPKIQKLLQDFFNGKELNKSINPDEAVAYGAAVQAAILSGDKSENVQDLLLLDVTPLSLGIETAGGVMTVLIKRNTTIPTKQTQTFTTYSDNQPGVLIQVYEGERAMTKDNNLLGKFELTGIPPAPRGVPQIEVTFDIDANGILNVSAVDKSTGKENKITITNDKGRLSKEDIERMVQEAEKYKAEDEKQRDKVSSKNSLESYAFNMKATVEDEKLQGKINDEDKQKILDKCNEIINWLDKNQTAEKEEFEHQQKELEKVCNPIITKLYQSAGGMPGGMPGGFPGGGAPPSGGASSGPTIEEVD
UniProt P0DMV8: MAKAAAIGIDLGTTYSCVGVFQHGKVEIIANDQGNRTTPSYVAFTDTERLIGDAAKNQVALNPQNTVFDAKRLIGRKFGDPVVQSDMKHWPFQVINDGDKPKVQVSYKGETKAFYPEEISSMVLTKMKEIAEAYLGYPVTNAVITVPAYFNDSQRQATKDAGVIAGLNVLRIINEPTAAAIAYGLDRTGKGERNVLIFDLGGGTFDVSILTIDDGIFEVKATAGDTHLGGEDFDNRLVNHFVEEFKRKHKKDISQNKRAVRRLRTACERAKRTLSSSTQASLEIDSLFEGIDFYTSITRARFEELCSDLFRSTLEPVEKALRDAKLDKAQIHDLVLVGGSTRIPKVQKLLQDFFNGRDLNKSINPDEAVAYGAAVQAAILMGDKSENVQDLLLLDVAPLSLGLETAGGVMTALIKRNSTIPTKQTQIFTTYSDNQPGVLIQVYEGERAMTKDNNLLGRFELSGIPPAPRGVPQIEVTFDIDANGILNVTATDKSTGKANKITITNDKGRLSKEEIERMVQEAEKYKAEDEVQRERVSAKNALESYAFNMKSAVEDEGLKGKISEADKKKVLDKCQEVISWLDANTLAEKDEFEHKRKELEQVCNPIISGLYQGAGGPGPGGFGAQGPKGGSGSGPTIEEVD
UniProt P54727: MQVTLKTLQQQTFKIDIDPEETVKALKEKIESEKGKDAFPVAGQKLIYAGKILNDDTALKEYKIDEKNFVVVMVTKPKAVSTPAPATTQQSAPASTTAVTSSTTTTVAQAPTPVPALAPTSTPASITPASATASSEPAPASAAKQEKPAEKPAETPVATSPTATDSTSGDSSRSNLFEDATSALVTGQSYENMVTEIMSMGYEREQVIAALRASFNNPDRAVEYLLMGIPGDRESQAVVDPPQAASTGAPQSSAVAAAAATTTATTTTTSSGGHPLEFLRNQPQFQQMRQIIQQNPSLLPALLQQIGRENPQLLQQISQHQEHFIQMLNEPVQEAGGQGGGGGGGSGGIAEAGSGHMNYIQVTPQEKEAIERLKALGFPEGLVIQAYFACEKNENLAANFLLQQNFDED
UniProt Q9UMX0: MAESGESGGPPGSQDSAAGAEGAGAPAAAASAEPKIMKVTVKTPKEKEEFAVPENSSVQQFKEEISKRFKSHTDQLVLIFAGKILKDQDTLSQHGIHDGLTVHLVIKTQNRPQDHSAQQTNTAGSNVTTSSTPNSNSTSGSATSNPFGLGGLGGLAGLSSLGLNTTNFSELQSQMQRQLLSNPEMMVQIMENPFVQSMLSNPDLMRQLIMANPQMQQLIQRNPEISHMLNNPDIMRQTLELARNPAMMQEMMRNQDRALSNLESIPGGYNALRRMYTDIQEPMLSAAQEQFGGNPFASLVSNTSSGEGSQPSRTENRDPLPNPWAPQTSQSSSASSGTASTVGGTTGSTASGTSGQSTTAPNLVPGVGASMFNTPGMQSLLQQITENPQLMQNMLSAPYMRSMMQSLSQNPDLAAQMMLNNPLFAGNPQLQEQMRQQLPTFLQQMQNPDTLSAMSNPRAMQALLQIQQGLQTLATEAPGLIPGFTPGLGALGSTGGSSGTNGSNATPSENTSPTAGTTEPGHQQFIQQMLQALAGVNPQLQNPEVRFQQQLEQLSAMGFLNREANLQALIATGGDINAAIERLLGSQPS

Changes are numbered by the printed parent chain. No constants are given. Whether binding was seen depends on the method and setting. In cells and extracts the contact can be indirect. Here binding means that the protein was enriched with, or labelled near, the bait; the list need not be complete. For some assays here: A no says only that the protein was not detected with the bait.

Assay [1] concerns the target T1, TAP–Bag-1L (human) (UniProt Q99933).
T1 sequence: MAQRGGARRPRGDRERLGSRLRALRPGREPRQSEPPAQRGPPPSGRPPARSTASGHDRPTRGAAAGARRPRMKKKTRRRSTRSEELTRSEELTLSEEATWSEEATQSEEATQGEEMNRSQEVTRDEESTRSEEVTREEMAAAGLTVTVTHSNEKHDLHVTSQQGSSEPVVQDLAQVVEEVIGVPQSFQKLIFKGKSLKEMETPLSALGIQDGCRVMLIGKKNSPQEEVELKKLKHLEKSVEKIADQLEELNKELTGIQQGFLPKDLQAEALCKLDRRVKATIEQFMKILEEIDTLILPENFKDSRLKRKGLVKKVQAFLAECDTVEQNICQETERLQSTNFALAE
Briefly: affinity purification with mass spectrometry; TAP-tagged Bag-1 isoform or Bag-1S mutant in lysate of transfected MCF-7 cells, captured on IgG Sepharose overnight at 4°C, released with AcTEV protease; in-solution trypsin digest, LC-MS/MS, label-free; enrichment >1.2-fold relative to TAP-only mock (mutants relative to wild-type TAP–Bag-1S).

Assay [2] concerns the target T2, TAP–Bag-1S (human) (UniProt Q99933).
T2 sequence: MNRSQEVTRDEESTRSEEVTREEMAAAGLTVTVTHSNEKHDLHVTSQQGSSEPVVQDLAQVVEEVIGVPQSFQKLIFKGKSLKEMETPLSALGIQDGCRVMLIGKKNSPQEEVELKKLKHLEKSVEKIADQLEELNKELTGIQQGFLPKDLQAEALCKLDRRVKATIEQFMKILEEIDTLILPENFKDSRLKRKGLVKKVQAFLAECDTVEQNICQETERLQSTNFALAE
Described as above.

The target in assay [3] is T1, TAP–Bag-1L (human). As to the kind of experiment: affinity purification with mass spectrometry + native gel or EMSA; TAP–Bag-1 isoform complexes from transfected cells (extraction with 5% digitonin) affinity-purified, run on BN-PAGE; bands cut, in-gel trypsin digest, LC-MS/MS. Background: A gel shift assay detects complexes by their altered migration in electrophoresis.

Assay [4] concerns the target T2, TAP–Bag-1S (human). Described as above.
A further assay concerns the target T3, TAP–Bag-1S R193D (human) (UniProt Q99933).
T3 sequence: T2 sequence with R193D
As to the kind of experiment: affinity purification with mass spectrometry; TAP-tagged Bag-1 isoform or Bag-1S mutant in lysate of transfected MCF-7 cells, captured on IgG Sepharose overnight at 4°C, released with AcTEV protease; in-solution trypsin digest, LC-MS/MS, label-free; enrichment >1.2-fold relative to TAP-only mock (mutants relative to wild-type TAP–Bag-1S).

A further assay concerns the target T4, TAP–Bag-1S R161D (human) (UniProt Q99933).
T4 sequence: T2 sequence with R161D
The assay is described as above.

A further assay has as its target T5, TAP–Bag-1S R162E (human) (UniProt Q99933).
T5 sequence: T2 sequence with R162E
Described as above.

Akt (human (endogenous in MCF-7)): the binding entry in the assay with TAP–Bag-1L (human) [1] and with TAP–Bag-1S (human) [2] was “no binding” each time.
On to Bcl-2 (from UniProt P10415 1-239), for which the binding result with TAP–Bag-1L (human) [1] and with TAP–Bag-1S (human) [2] was “no binding” throughout.
With CHIP (from UniProt Q9UNE7 1-303), the binding result with TAP–Bag-1L (human) [1] is on record as “no binding”.
With Calnexin (from UniProt P27824 21-592), the binding entry with TAP–Bag-1L (human) [3] and in the assay with TAP–Bag-1S (human) [4] was “binds” in each case.
Take “Calreticulin (from UniProt P27797 18-417)”: the binding result with TAP–Bag-1L (human) [3] and with TAP–Bag-1S (human) [4] was “binds” throughout.
For Hsc70 (from UniProt P11142 1-646), the binding entry with TAP–Bag-1L (human) [1] and with TAP–Bag-1S (human) [2] was “binds” throughout.
On to Hsp70 (from UniProt P0DMV8 1-641), for which the binding result with TAP–Bag-1L (human) [1], with TAP–Bag-1S (human) [2] and with TAP–Bag-1S R193D (human) was “binds” in each case.
In the case of Rad23B (from UniProt P54727 1-409), the binding entry in the assay with TAP–Bag-1L (human) [3] and in the assay with TAP–Bag-1S (human) [4] was “binds” each time.
Consider VCP/p97 (from UniProt P55072 1-806), for which the binding result in the assay with TAP–Bag-1L (human) [3], with TAP–Bag-1S (human) [4], with TAP–Bag-1S (human) [2], with TAP–Bag-1S R161D (human), with TAP–Bag-1S R162E (human) and with TAP–Bag-1S R193D (human) was “binds” in each case.
As to ribophorin, the binding result with TAP–Bag-1L (human) [3] and in the assay with TAP–Bag-1S (human) [4] was “binds” throughout.
With ubiquilin-1 (from UniProt Q9UMX0 1-589), the binding result in the assay with TAP–Bag-1L (human) [3] and in the assay with TAP–Bag-1S (human) [4] was “binds” each time.
